A short description of the data set: general procedure: Fmoc solid-phase peptide synthesis; preloaded Fmoc-glycine sasrin resin (0.7 mmol/g); HBTU/HOBT. The settings on record: for crude HPLC purity / crude mass / isolated yield / isolated mass: whole synthesis; for crude HPLC purity / isolated yield: scale of the general procedure 1.0 mmol; for conjugation yield: conjugation step.

On to “DimethylGly-Ser-Cys(Acm)-(βAla)3 -Lys(N^ε -Vancomycin)-Gly-OH”, for which the “crude HPLC purity” value (run 1) is on record as 21% and the “crude HPLC purity” value (run 2) is on record as 31%. Moreover, the crude mass is 24 mg (scale 50 mg (24.5 μmol) resin) and 10 mg (scale 50 mg (25 μmol) resin). Besides, the isolated yield is, setting by setting: (run 1) 4%; (run 2) 11%. Also, the isolated mass by setting is: (run 1) 2 mg; (run 2) 6 mg.

Substance “DimethylGly-Ser-Cys(Acm)-Gly-NH(CH2)3 NH2” showed a step yield (late stage modification step) of 65%.

Take “DimethylGly-Ser-Cys(Acm)-Gly-NH(CH2)3 NH-Vancomycin”: the conjugation yield reads like this: (run 1) 64%; (run 2) 75%.

Turning to “dimethylGly-Ser(t-Butyl)-Cys(Acm)-(βA3)-Lys(N^ε -Vancomycin)-Gly-OH”, the “crude HPLC purity” value is 34%. Under “purification step”, the step yield amounted to 27%.

Source of the values: patent US6017511A (Resolution Pharmaceuticals Inc., priority 1997, dated 2000).
